Only a part is listed here, and it is no random draw. Entries without a call were filed so in the source. Records with an inconclusive call do not appear. Activity calls are given as the source filed them. Calls follow the shape of the dose curve; as a rule, active = well fitted curve in the direction sought with a large enough effect; inconclusive = small, poorly fitted or top-dose-only effect, or another doubt; inactive = no such curve, though single readings can be large or run the other way.

This test is described as follows: qHTS Assay Multiplex Screening to Identify Dual Action Probes in a Cell Model of Huntington: Cytoprotection in HTT Q25 expressing cells (ATP). Particulars: PC12 HTT-Q25 inducible, ATP luminescence, 40 h; activity change, positive = cytoprotection: at 46.1 µM (top of the series). The text has this: NIH Chemical Genomics Center [NCGC] NIH Molecular Libraries Probe Production centers Network [MLPCN] MLPCN Grant: MH084839-01A1 Assay Submitter (PI): Wei Zheng NCGC Assay Overview: Huntington's disease is a neurodegenerative disorder caused by a trinucleotide repeat expansion in Exon 1 of the Huntingtin gene. The CAG trinucleotide encodes glutamine and polyglutamine expansions cause cell death in selective areas of the brain. Huntington polyglutamine repeats have the tendency to form aggregates which are observable in later stages of the disease. The exact nature of the aggregates, whether toxic, protective, or insignificant, is unclear. A stable PC12 cell line containing a gene fusion of Exon 1 of the Huntingtin gene linked to GFP under the control of the inducible ecdysone promoter were used as the cell-based model of Huntington Disease for high throughput screening. Exon 1 of the Huntingtin gene contained an expansion of 103 polyglutamines (Q103) which, when expressed, caused cell death and distinct, bright GFP aggregates. The amount of cell death and the size and intensity of GFP aggregates increased over time and induction level. The cell death were quantified with a measurement of ATP content in the cells. A maximal 40-50% of cell death was observed when the Huntington gene was induced in this cell line. We optimized this assay in a homogeneous 1536 well format. A quantitative high throughput screen (qHTS) was conducted on the PC12 cells which were induced to express the toxic fusion construct. Small molecules which prevented cell death were identified by using a luminescent ATP quantification method (Perkin Elmer's ATPlite). To characterize compound effects on a different form of the HTT protein, PC12 cells stably containing a construct with an ecdysone inducible promoter expressing GFP fused to the exon 1 of HTTQ25 (Huntington protein which containing a 25 ployglutamine expansion) were used. Less cytoxicity occurs upon induction of HTTQ25.
PC12 cells stably containing a construct with an ecdysone inducible promoter expressing GFP fused to the exon 1 of HTTQ25 (Huntington protein which containing a 25 ployglutamine expansion) were used. NCGC Assay Protocol Summary: Sequence, Parameter, Description 1, Reagent, 5 uL 1500 cells/well 1536 TC treated White clear bottom plate 2, Compound, 23 nL Tebufenozide inducer (100 nM final) to all columns 3, Compound, 23 nL 40 uM to 0.5 nM Libraries 4, Time, 40 hours at 37C 5, Reagent, 5 ul ATPLite cell death assay reagent 6, Detector, 4 sec integration with a Viewlux Luminescent Media consisted of phenol red free DMEM + 5% equine serum (Hyclone # SH30072.03 ), 5% supplemented Bovine Calf Serum (Hyclone # SH30074.03 ), 1x pen/strep, no G418
(In general: qHTS replaces the single test concentration by a dilution series.)
With `Cn1nnnc1Sc1ncnc2scc(-c3ccccc3F)c12`, the activity change, positive = cytoprotection is 139%. On to `Cn1nnnc1Sc1ncnc2scc(-c3ccc4c(c3)OCO4)c12`, for which the activity change, positive = cytoprotection worked out at 210%. As for `Cn1nnnc1Sc1ncnc2scc(-c3cccc([N+](=O)[O-])c3)c12`, the activity change, positive = cytoprotection worked out at 40.6%.

Consider `Cn1nnnc1Sc1ncnc2scc(-c3ccc(C(F)(F)F)cc3)c12`, for which the “activity change, positive = cytoprotection” value was inactive: -214%.

For the molecule `Cn1nnnc1Sc1ncnc2scc(-c3ccc(C#N)cc3)c12`, the activity change, positive = cytoprotection was -143%.

Take `Cn1nnnc1Sc1ncnc2scc(-c3cccc(Br)c3)c12`: the “activity change, positive = cytoprotection” value was inactive: -154%. As to `Cn1nnnc1Sc1ncnc2scc(Br)c12`, the activity change, positive = cytoprotection was -163%. In the case of `Cn1nnnc1Sc1ncnc2scc(-c3ccsc3)c12`, the Potency is active: 10 µM.

In the case of `Cn1nnnc1Sc1ncnc2scc(-c3ccc4ccccc4c3)c12`, the activity change, positive = cytoprotection was -144%. Same read-out and setting: for `Cn1nnnc1Sc1ncnc2scc(I)c12` the value was 37.7%.

For the origin of these results see PubChem BioAssay AID2672 (National Center for Advancing Translational Sciences (NCATS), 2010).
